{
  "source": "paper doi:10.1101/694695",
  "about": "(bioRxiv, 2019)",
  "note": "These are yes or no findings as the source states them, for the method shown. Binding can be weak; no strength is given. Sequences can lack the tags named with a protein.",
  "data": [
    {"target": "T1, P. aeruginosa ATCC27853 CdnD (yeast two-hybrid fusion) (P. aeruginosa ATCC27853) (UniProt P0DTF7)", "T1 sequence": "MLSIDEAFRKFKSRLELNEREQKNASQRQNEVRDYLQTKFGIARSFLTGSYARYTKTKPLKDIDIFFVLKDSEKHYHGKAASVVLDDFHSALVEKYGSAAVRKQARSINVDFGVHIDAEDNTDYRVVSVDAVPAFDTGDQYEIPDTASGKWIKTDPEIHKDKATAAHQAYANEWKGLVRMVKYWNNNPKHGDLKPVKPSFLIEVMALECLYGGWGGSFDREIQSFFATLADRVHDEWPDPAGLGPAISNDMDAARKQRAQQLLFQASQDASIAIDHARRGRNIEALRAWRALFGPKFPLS", "experiment": "two-hybrid", "values": [
      {"substance": "P. aeruginosa ATCC27853 HORMA1 (yeast two-hybrid fusion)", "binding": "binds"},
      {"substance": "P. aeruginosa ATCC27853 HORMA2 (yeast two-hybrid fusion)", "binding": "binds"},
      {"substance": "Pa HORMA2-ΔC (lacking residues 134-166; yeast two-hybrid fusion) (P. aeruginosa ATCC27853) (domain or fragment)", "binding": "no binding"}
    ]}
  ]
}
